Some of these results come from one statement about several compounds together. For at least one compound, name, drawing or mass did not settle the structure.
What was measured:
[1] = tested on: Methicillin-resistant Staphylococcus aureus (MRSA); assay: MIC by agar dilution, MRSA clinical isolates; assay type: cell-based; conditions: against MRSA
Excerpt: (§1) A panel of multiple resistance Gram-positive and Gram-negative pathogens listed in Tables 1 and 2 was used to evaluate the antimicrobial activity of marinopyrrole derivatives (Chart 1) with vancomycin as a positive control. Except for those marked with WHO, all pathogens were isolated between 2008 and 2010 in hospitals located in Beijing; Guangzhou; Sichuan, Shandong and Jiangsu Province. Determination of the minimum inhibitory concentration (MIC) was done by the guidelines of the Clinical and Laboratory Standards Institute (Clinical and Laboratory Standards Institute, Performance standards for antimicrobial susceptibility testing, seventeenth informational supplement. 2007, 27, M100-S17). The susceptibility tests of a bacterial strain to a marinopyrrole derivative were performed by an agar dilution method. Briefly, each sterile petri dish contained a final volume of 15 mL comprising 1 mL of a marinopyrrole derivative and 14 mL of Mueller-Hinton broth. The concentrations of a marinopyrrole derivative are 128, 64, 32, 16, 8, 4, 2, 1, 0.5, 0.25, 0.125, 0.06, 0.03, 0.015 and 0.008 μg/mL. The petri dish containing the broth with different concentration of antibiotics was first inoculated with 10^5 CFU/mL (Denley A400, United Kingdom) and the culture was then incubated with shaking at 35-37° C. for 18-20 h. The potency of the compound was determined and expressed as minimum inhibitory concentration (MIC) in μg/mL. The MIC was determined as the lowest concentration of antibiotic that inhibited visible bacterial growth.

[2] = tested on: Methicillin-susceptible Staphylococcus aureus (MSSA); assay: MIC by agar dilution, MSSA clinical isolates; assay type: cell-based; conditions: against MSSA
Excerpt: as §1

| Compound | MIC (no antibiotic activity) [1] | MIC (no antibiotic activity) [2] |
| --- | --- | --- |
| O=C(c1ccc(S(=O)(=O)Cc2ccccc2)cc1O)c1[nH]c(Cl)c(Cl)c1-n1c(C(=O)c2ccc(S(=O)(=O)Cc3ccccc3)cc2O)cc(Cl)c1Cl [Compound 29, (4,4′,5,5′-Tetrachloro-1′H-1,3′-bipyrrole-2,2′-diyl)bis(((2-hydroxy-4-benzylsulfonyl)phenyl)methanone)] | > 32 µg/mL | > 32 µg/mL |
| COc1ccc(CS(=O)(=O)c2ccc(C(=O)c3[nH]c(Cl)c(Cl)c3-n3c(C(=O)c4ccc(S(=O)(=O)Cc5ccc(OC)cc5)cc4O)cc(Cl)c3Cl)c(O)c2)cc1 [Compound 30] | > 32 µg/mL | > 32 µg/mL |
| O=C(O)CSc1ccc(C(=O)c2[nH]c(Cl)c(Cl)c2-n2c(C(=O)c3ccc(SCC(=O)O)cc3O)cc(Cl)c2Cl)c(O)c1 [Compound 31] | > 32 µg/mL | > 32 µg/mL |
| O=C(c1ccc(SCc2ccccc2)cc1O)c1[nH]c(Cl)c(Cl)c1-n1c(C(=O)c2ccc(SCc3ccccc3)cc2O)cc(Cl)c1Cl [Compound 26, (4,4′,5,5′-Tetrachloro-1′H-1,3′-bipyrrole-2,2′-diyl)bis(((2-hydroxy-4-benzylthio)phenyl)methanone)] | > 32 µg/mL | > 32 µg/mL |
| COc1ccc(CSc2ccc(C(=O)c3[nH]c(Cl)c(Cl)c3-n3c(C(=O)c4ccc(SCc5ccc(OC)cc5)cc4O)cc(Cl)c3Cl)c(O)c2)cc1 [Compound 27] | > 32 µg/mL | > 32 µg/mL |

Further lines, results first:

| MIC (no antibiotic activity) [1] | MIC (no antibiotic activity) [2] | Compound |
| --- | --- | --- |
| > 32 µg/mL | > 32 µg/mL | CCOC(=O)CS(=O)(=O)c1ccc(C(=O)c2[nH]c(Cl)c(Cl)c2-n2c(C(=O)c3ccc(S(=O)(=O)CC(=O)OCC)cc3O)cc(Cl)c2Cl)c(O)c1 [Compound 28] |
| > 32 µg/mL | > 32 µg/mL | O=C(O)CS(=O)(=O)c1ccc(C(=O)c2[nH]c(Cl)c(Cl)c2-n2c(C(=O)c3ccc(S(=O)(=O)CC(=O)O)cc3O)cc(Cl)c2Cl)c(O)c1 [Compound 32] |
| > 32 µg/mL | > 32 µg/mL | CCOC(=O)CSc1ccc(C(=O)c2[nH]c(Cl)c(Cl)c2-n2c(C(=O)c3ccc(SCC(=O)OCC)cc3O)cc(Cl)c2Cl)c(O)c1 [Compound 25] |

Reference: US9700044B2, “Symmetrical marinopyrrole derivatives as potential antibiotic agents” (priority 2013, dated 2017)
